About 6,100 (1.1%) of roughly 580,000 compounds were called active. Inconclusive results, whose numbers are uncertain, are shown with a selection of clear calls. Calls follow the shape of the dose curve; as a rule, active = well fitted inhibition curve with a large enough effect; inconclusive = small, poorly fitted or top-dose-only effect, or another doubt; inactive = no such curve, though single readings can be large or run the other way. Potencies of inconclusive entries are doubtful fits and often do not repeat.
Target: Polyunsaturated fatty acid lipoxygenase ALOX12 (Homo sapiens) (UniProt P18054)
Test: Primary qHTS assay for inhibitors of human arachidonate 12S-lipoxygenase (ALOX12): Round 2
Details: purified 12hLO, xylenol orange hydroperoxide absorbance; activity change, negative = inhibition: at 108 µM (top of the series) unless noted
In short: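 Hydroperoxide product was detected by ferrous iron/xylenol orange as the 573 to 405 nm absorbance ratio. Arachidonic acid at 40 uM (final) was turned over for 30 min at room temperature by 150 nM human 12hLO, pH 7.0 Hepes buffer, after 15 min compound preincubation.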
% is scaled to controls: 0 for no effect and ±100 for the full control effect; potency is read from the fitted curve at half-maximal effect.

By UniProt entry, the sequences of proteins in these tests, tags left out.
UniProt P18054, whole entry, looked up: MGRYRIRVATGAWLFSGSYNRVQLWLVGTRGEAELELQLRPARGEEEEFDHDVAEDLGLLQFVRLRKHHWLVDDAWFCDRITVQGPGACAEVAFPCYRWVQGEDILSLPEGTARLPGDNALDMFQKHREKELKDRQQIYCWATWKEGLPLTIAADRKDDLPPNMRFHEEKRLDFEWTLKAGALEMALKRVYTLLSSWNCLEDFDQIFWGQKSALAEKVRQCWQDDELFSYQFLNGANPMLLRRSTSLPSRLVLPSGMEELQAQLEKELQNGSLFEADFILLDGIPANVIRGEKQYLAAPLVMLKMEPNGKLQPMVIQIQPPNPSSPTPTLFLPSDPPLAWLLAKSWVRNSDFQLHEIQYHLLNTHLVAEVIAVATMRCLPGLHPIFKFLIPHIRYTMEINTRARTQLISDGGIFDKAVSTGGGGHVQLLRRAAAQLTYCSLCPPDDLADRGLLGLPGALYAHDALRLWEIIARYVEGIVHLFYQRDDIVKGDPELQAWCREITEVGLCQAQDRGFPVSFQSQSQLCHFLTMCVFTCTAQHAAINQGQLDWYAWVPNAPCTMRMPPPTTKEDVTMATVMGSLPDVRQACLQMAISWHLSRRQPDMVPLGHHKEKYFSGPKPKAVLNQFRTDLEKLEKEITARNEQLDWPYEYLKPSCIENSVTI

Structure (SMILES) | Potency | activity change, negative = inhibition
Cc1cc(C)c2c3c(sc2n1)C(=O)N(c1ccccc1C)CC(=O)N3 | inconclusive: 100 µM [inhibitor, partial curve, poor fit] | –
CCOC(=O)c1ccc(N2C(=O)c3n[nH]c(-c4ccco4)c3C2c2cccc(O)c2)cc1 (stereo unspecified) | inconclusive: 44.7 µM [inhibitor, partial curve, poor fit] | –
O=c1cc(C2=CCOCC2)oc2c(-c3cccc4[nH]ccc34)nccc12 | active: 35.5 µM | –
Cc1cc2c(c(=O)n(-c3ccc(F)cc3)c(=O)n2CC(=O)Nc2cc(F)ccc2F)n1C | inconclusive: 79.4 µM [inhibitor, single point] | –
COc1ccc2cc3[n+](cc2c1OC)CCc1cc2c(cc1-3)OCO2 | inconclusive: 1.93 µM [inhibitor, full curve, poor fit] | –
CCOc1cc(-c2ccccc2)sc1C(=O)O | – | inactive: -24.5%
CN(Cc1cc2n(n1)CCCNC2)CC1COCCO1 (stereo unspecified) | inconclusive: 14.1 µM [inhibitor, partial curve] | –
COc1cc(N2CCCC2)c(OC)cc1/C=C(/C#N)c1ccc(F)cc1 | inconclusive: 44.7 µM [inhibitor, partial curve, poor fit] | –
CCOC(=O)C1CCCN(Cc2ccc(OCc3ccccc3)c(OC)c2)C1 (stereo unspecified) | active: 0.562 µM | –
CC(=O)OC1C(C)OC(Oc2c(-c3ccc(O)cc3)oc3cc(O)cc(O)c3c2=O)C(O)C1OC(C)=O (stereo unspecified) | inconclusive: 112 µM [inhibitor, single point] | –
COc1cc(C(=O)Nc2ccc(-c3nc4cc(C)ccc4o3)c(O)c2)cc(OC)c1OC | – | inactive: 21.2%
CCOc1ccc2c(c1)/C(=N/N1C(=O)c3ccccc3C1=O)C(=O)N2 | – | inactive: -0.513%
Oc1ccc(Cl)cc1CNc1ccccn1 | inconclusive: 50.1 µM [inhibitor, partial curve, poor fit] | –
COc1cccc(CCC(=O)N2CCC(C3CCNC3)CC2)c1 (stereo unspecified) | inconclusive: 20 µM [inhibitor, full curve, poor fit] | –
CCOC(=O)c1c(NC(C)=O)sc2c(OC)c(Br)ccc12 | – | inactive: -2.66% [at 57.4 µM]
Cc1cccc(-c2nc(CN3CCCC(C(=O)NCCc4ccc(Cl)cc4)C3)c(C)o2)c1 (stereo unspecified) | inconclusive: 44.7 µM [inhibitor, partial curve, poor fit] | –
Cc1cc(C)n2cc(CSc3ncccc3C(=O)O)nc2n1 | inconclusive: 3.55 µM [inhibitor, full curve, poor fit] | –
O=C(Nc1ccc(O)cc1)c1cc(-c2ccco2)nc2ccccc12 | inconclusive: 39.8 µM [inhibitor, partial curve, poor fit] | –
S=c1[nH]nc(-c2ccncc2)n1/N=C/c1cccc(Cl)c1 | inconclusive: 8.91 µM [inhibitor, full curve, poor fit] | –
CC1CCN(C(=O)Cn2cc(SCC(=O)NCC3CCCO3)c3ccccc32)CC1 (stereo unspecified) | – | inactive: -8.08%
COc1cc2c(cc1Cc1cccc(Cl)c1F)c(=O)c(C(=O)O)cn2[C@H](CO)C(C)C | inconclusive: 5.44 µM [inhibitor, partial curve, poor fit] | –
O=C(CN1CCCN(S(=O)(=O)c2ccc(F)cc2)CC1)Nc1cccc(F)c1 | – | inactive: -23.1%
Cc1ccc(OCC(=O)Nc2ccc(N3CCN(S(C)(=O)=O)CC3)cc2)cc1Cl | inconclusive: 44.7 µM [inhibitor, partial curve, poor fit] | –
Cc1ccc(-c2cc(C(=O)Oc3ccc(C#N)cc3)no2)cc1C | inconclusive: 100 µM [inhibitor, partial curve, poor fit] | –

Structure (SMILES) | Potency | activity change, negative = inhibition
NS(=O)(=O)c1ccc(CCNC(=O)CNCCc2ccccc2)cc1 | active: 0.631 µM | –
C=CCn1c(SCC(=O)c2cccs2)nnc1-c1cccc(OC)c1 | inconclusive: 39.8 µM [inhibitor, partial curve, poor fit] | –
CCc1ccc2nc(N(CCCN(C)C)C(=O)c3ccc(S(=O)(=O)N4CCc5ccccc5C4)cc3)sc2c1 | – | inactive: 5.62%
CCN1CCN(c2cc(C(=O)O)c3cc(NC(=O)C(C)C)ccc3n2)CC1 | active: 15.8 µM | –
O=C(O)CONC(=O)c1cc(OCC(F)(F)F)ccc1OCC(F)(F)F | inconclusive: 50.1 µM [inhibitor, partial curve, poor fit] | –
COc1ccc(-c2cc(N3CCCC(NC(=O)c4ccc(C)nc4)C3)n[nH]2)cc1 (stereo unspecified) | – | inactive: -0.761%
COc1cc(/C=N/O)cc(Br)c1O | – | inconclusive: -44.5% [inhibitor]
COc1ccc(-c2cc(=O)c3ccccc3[nH]2)cc1 | inconclusive: 20 µM [inhibitor, partial curve, poor fit] | –
Cc1noc(C)c1Cn1c(=O)c2c(ncn2C2CCCC2)n(Cc2ccccc2)c1=O | – | inactive: 31.7%
O=C(NCCc1ccccn1)c1cccc(S(=O)(=O)N2CCc3ccccc32)c1 | – | inactive: -2.41%
O=C1c2c(-c3ccc(Br)cc3)noc2CCN1Cc1cn(C2CCCC2)nn1 | – | inactive: 0.597%
COc1ccccc1NS(=O)(=O)c1cccc(-n2c(O)c(C=Nc3ccccc3C(=O)O)c3ccccc3c2=O)c1 | inconclusive: 50.1 µM [inhibitor, partial curve, poor fit] | –
COC(=O)C1=C(C)N(c2ccccc2)C(=O)CC1C(=O)Nc1ccc(F)c(F)c1 (stereo unspecified) | – | inactive: -27.6%
Cc1cc(C)c(S(=O)(=O)n2nc(C)c(Br)c2C)c(C)c1 | inconclusive: 7.94 µM [inhibitor, partial curve, poor fit] | –
FC(F)(F)c1cccc(N/N=C/c2cccc(Br)c2)c1 | – | inactive: -91.5%
COc1ccc(S(=O)(=O)Nc2ccc(N3CCOCC3)cc2)cc1 | – | inactive: 0%
CCn1cc(S(=O)(=O)N2CCC3(CC2)CC(OCCOC)CCO3)cn1 (stereo unspecified) | inconclusive: 35.5 µM [inhibitor, partial curve, poor fit] | –
C=CCOC(=O)c1sc(NC(=O)c2ccco2)nc1C | – | inactive: -13.8%
O=C(/C=C/c1ccc(-c2ccccc2Cl)o1)c1ccc2ccccc2c1 | active: 1 µM | –
Cc1cc(C(F)(F)F)nn1Cc1nc2c3c4c(sc3ncn2n1)CCC4 | – | inactive: 37.6%
O=C(Cn1ncc2c3ccccc3n(Cc3ccc(F)cc3)c2c1=O)NCc1ccccn1 | – | inactive: 0.272%
CC(C)c1ccc(NC(=O)Nc2nc(C(C)N)cs2)cc1 (stereo unspecified) | inconclusive: 89.1 µM [inhibitor, single point] | –
CCCN(C(=O)c1cc(S(=O)(=O)N(C)c2ccccc2OC)ccc1C)C1CCS(=O)(=O)C1 (stereo unspecified) | inconclusive: 141 µM [inhibitor, single point] | –
CCOc1cc(/C=C/C(=O)c2cccc(Cl)c2)cc(Cl)c1O | active: 5.62 µM | –

Reformatted as tab-separated lines: part of the list above
Structure (SMILES)	Potency	activity change, negative = inhibition
NS(=O)(=O)c1ccc(CCNC(=O)CNCCc2ccccc2)cc1	active: 0.631 µM	–
C=CCn1c(SCC(=O)c2cccs2)nnc1-c1cccc(OC)c1	inconclusive: 39.8 µM [inhibitor, partial curve, poor fit]	–
CCc1ccc2nc(N(CCCN(C)C)C(=O)c3ccc(S(=O)(=O)N4CCc5ccccc5C4)cc3)sc2c1	–	inactive: 5.62%
CCN1CCN(c2cc(C(=O)O)c3cc(NC(=O)C(C)C)ccc3n2)CC1	active: 15.8 µM	–
COc1ccc(-c2cc(N3CCCC(NC(=O)c4ccc(C)nc4)C3)n[nH]2)cc1 (stereo unspecified)	–	inactive: -0.761%
COc1cc(/C=N/O)cc(Br)c1O	–	inconclusive: -44.5% [inhibitor]
COc1ccc(-c2cc(=O)c3ccccc3[nH]2)cc1	inconclusive: 20 µM [inhibitor, partial curve, poor fit]	–
Cc1noc(C)c1Cn1c(=O)c2c(ncn2C2CCCC2)n(Cc2ccccc2)c1=O	–	inactive: 31.7%
O=C(NCCc1ccccn1)c1cccc(S(=O)(=O)N2CCc3ccccc32)c1	–	inactive: -2.41%
O=C1c2c(-c3ccc(Br)cc3)noc2CCN1Cc1cn(C2CCCC2)nn1	–	inactive: 0.597%
COc1ccccc1NS(=O)(=O)c1cccc(-n2c(O)c(C=Nc3ccccc3C(=O)O)c3ccccc3c2=O)c1	inconclusive: 50.1 µM [inhibitor, partial curve, poor fit]	–
COC(=O)C1=C(C)N(c2ccccc2)C(=O)CC1C(=O)Nc1ccc(F)c(F)c1 (stereo unspecified)	–	inactive: -27.6%
Cc1cc(C)c(S(=O)(=O)n2nc(C)c(Br)c2C)c(C)c1	inconclusive: 7.94 µM [inhibitor, partial curve, poor fit]	–
FC(F)(F)c1cccc(N/N=C/c2cccc(Br)c2)c1	–	inactive: -91.5%
COc1ccc(S(=O)(=O)Nc2ccc(N3CCOCC3)cc2)cc1	–	inactive: 0%
C=CCOC(=O)c1sc(NC(=O)c2ccco2)nc1C	–	inactive: -13.8%
O=C(/C=C/c1ccc(-c2ccccc2Cl)o1)c1ccc2ccccc2c1	active: 1 µM	–
Cc1cc(C(F)(F)F)nn1Cc1nc2c3c4c(sc3ncn2n1)CCC4	–	inactive: 37.6%
O=C(Cn1ncc2c3ccccc3n(Cc3ccc(F)cc3)c2c1=O)NCc1ccccn1	–	inactive: 0.272%
CCCN(C(=O)c1cc(S(=O)(=O)N(C)c2ccccc2OC)ccc1C)C1CCS(=O)(=O)C1 (stereo unspecified)	inconclusive: 141 µM [inhibitor, single point]	–
CCOc1cc(/C=C/C(=O)c2cccc(Cl)c2)cc(Cl)c1O	active: 5.62 µM	–

Compounds above that have a cyano group (2):
Structure (SMILES) | Potency | activity change, negative = inhibition
COc1cc(N2CCCC2)c(OC)cc1/C=C(/C#N)c1ccc(F)cc1 | inconclusive: 44.7 µM [inhibitor, partial curve, poor fit] | –
Cc1ccc(-c2cc(C(=O)Oc3ccc(C#N)cc3)no2)cc1C | inconclusive: 100 µM [inhibitor, partial curve, poor fit] | –

Following part.

Structure (SMILES) | Potency | activity change, negative = inhibition
COc1ccc(Br)cc1C(=O)N/N=C/c1ccc([N+](=O)[O-])cc1 | inconclusive: 126 µM [inhibitor, partial curve, poor fit] | –
CS(=O)(=O)c1ccc2sc(N)nc2c1 | inconclusive: 1.12 µM [inhibitor, full curve, poor fit] | –
COc1ccc(-c2oc3ncnc(N)c3c2-c2ccccc2)cc1 | – | inactive: 0%
CNCc1cn(C[C@H]2O[C@@H](CC(=O)NCc3ccc(F)cc3)[C@H](O)[C@@H]2O)nn1 | inconclusive: 39.8 µM [inhibitor, full curve] | –
O=C(c1cc2c(s1)CCCC2)N1CCN(C(=O)C2CCCO2)CC1 (stereo unspecified) | – | inactive: -7.2%
COc1ccc(OC)c(CNCc2c(C(=O)O)n(Cc3cccc(F)c3)c3cc(OC)ccc23)c1 | inconclusive: 63.1 µM [inhibitor, partial curve, poor fit] | –
CCN1CCCC1CN(Cc1cc2c(C)cc(C)cc2[nH]c1=O)C(=O)NC1CCCCC1 (stereo unspecified) | inconclusive: 79.4 µM [inhibitor, single point] | –
O=C(N/N=C/c1ccccc1)NC1CCCCC1 | – | inactive: -24.3%
COc1ccc(-n2c(=S)[nH]c3sc(-c4ccccc4)cc3c2=O)c(OC)c1 | inconclusive: 35.5 µM [inhibitor, partial curve] | –
CCCCn1c(N)c(N(Cc2ccco2)C(=O)c2cccnc2OCC)c(=O)[nH]c1=O | inconclusive: 89.1 µM [inhibitor, single point] | –
Cc1cc(NC(=O)c2ccco2)cc(-c2nc3cc(C(C)C)ccc3o2)c1O | – | inactive: 13.2%
COc1ccc(C2(CNC(=O)C(=O)Nc3ccc(C)cc3)CCOCC2)cc1 | – | inactive: 1.56%
CCOc1ccccc1CN1CCNC(=O)C1CC(=O)NCCC1=CCCCC1 (stereo unspecified) | inconclusive: 50.1 µM [inhibitor, single point] | –
Cc1cc(N2CCN(C)C3(CCNC(=O)CC3)C2)nc(N2CCCCC2)n1 (stereo unspecified) | inconclusive: 20 µM [inhibitor, single point] | –
Cc1ccc(C)c(C2=NNC(=NCc3ccccc3)SC2)c1 | inconclusive: 44.7 µM [inhibitor, partial curve, poor fit] | –
CC(=O)c1c(C)[nH]c(C(=O)CN2CCN(S(=O)(=O)c3ccccc3F)CC2)c1C | – | inactive: 125%
CC(=O)c1ccc(NC(=O)N(C)CCc2noc(-c3ccc(C(=O)N4CCCCC4)cc3)n2)cc1 | – | inactive: -13.7%
Cc1sc2nc3c(SC(C)C(=O)O)cc(C(=O)c4ccccc4O)cn3c(=O)c2c1C (stereo unspecified) | inconclusive: 28.2 µM [inhibitor, partial curve, poor fit] | –
Nc1nc(CN2CCN(C(=O)c3cccc(F)c3)CC2)nc2ccccc12 | – | inactive: 68.3%
Cc1ccc(-n2nc(C)c3c(C)cc(=O)n(CC(=O)Nc4cccc(C)c4C)c32)cc1 | – | inactive: -11.7%
COc1ccccc1NC(=O)CN1CCN(Cc2ccccc2)CC1 | – | inactive: 0%
COc1ccccc1CNc1ncnc2c1cnn2-c1ccc(C)cc1 | inconclusive: 112 µM [inhibitor, single point] | –
O=C1NC(=S)/C(=C\c2ccc(-c3ccccc3Cl)o2)S1 | active: 35.5 µM | –

Source: PubChem BioAssay AID1671190 (National Center for Advancing Translational Sciences (NCATS), 2021)
